The supplement of paper PMC6078165
± gives the standard deviation of the averaged measurements. Values are relative to the signal before dosing, not to a vehicle control; the signal also falls without drug.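 Fibroblast labels name human fibroblasts: mostly primary ones from tissues such as uterus (C12385, HUF), lung (H6013), bone (Hs27A), adrenal (HADF) and skin (WS1), plus mammary HMF and breast cancer-associated Hs343T. The cancer cells are basal-like or mesenchymal-like triple-negative breast cancer lines. The paper calls a changed response a hit when it shifts by more than 3x the replicate standard deviation. The tissue of the other fibroblasts is not given here.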

Tested on: BT20
Test: relative JC-1 red fluorescence (viability) vs pre-drug, coculture with fibroblast (fraction); higher = more viable cancer cells
Description: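 JC-1 labelled TNBC cells cocultured 1:1 (1,500 cells each) with CellTrace Violet stained primary or stromal fibroblasts in 384-well plates in FluoroBrite medium, treated with one of 42 anticancer drugs at 0.1, 1, 10 or 100 uM. JC-1 red fluorescence (mitochondrial integrity in cancer cells only) was read by plate reader every 8 h for 72 h. Values are normalised to each well's pre-drug value. The stock of one drug was tenfold lower, so its dose labels may be too high.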

O=NN(CCCl)C(=O)NC1CCCCC1 [Lomustine]
relative JC-1 red fluorescence
Settings	8 h	16 h	24 h	32 h	40 h	48 h	56 h	64 h	72 h
0.1 µM, coculture fibroblast: C12385	0.892 ± 0.021	0.844 ± 0.03	0.836 ± 0.05	0.803 ± 0.084	0.766 ± 0.11	0.751 ± 0.12	0.747 ± 0.13	0.758 ± 0.14	0.75 ± 0.14
0.1 µM, coculture fibroblast: H6013	0.914 ± 0.0029	0.889 ± 0.016	0.871 ± 0.015	0.8239 ± 0.0037	0.8005 ± 0.0034	0.781 ± 0.015	0.791 ± 0.022	0.777 ± 0.034	0.764 ± 0.031
0.1 µM, coculture fibroblast: H6019	0.8629 ± 0.0022	0.7975 ± 0.0021	0.7904 ± 0.0016	0.73 ± 0.0095	0.68 ± 0.017	0.6568 ± 0.0019	0.616 ± 0.015	0.5921 ± 0.0037	0.572 ± 0.013
0.1 µM, coculture fibroblast: H6076	0.858 ± 0.028	0.953 ± 0.022	0.894 ± 0.054	0.87 ± 0.059	0.854 ± 0.062	0.84 ± 0.056	0.839 ± 0.059	0.838 ± 0.048	0.835 ± 0.049
0.1 µM, coculture fibroblast: H6231	0.833 ± 0.1	0.902 ± 0.02	0.8264 ± 0.0074	0.766 ± 0.01	0.722 ± 0.019	0.68 ± 0.0078	0.653 ± 0.015	0.633 ± 0.023	0.613 ± 0.023
0.1 µM, coculture fibroblast: HADF	0.935 ± 0.011	0.865 ± 0.021	0.81818 ± 0.00018	0.77649 ± 2.8e-05	0.7517 ± 0.0013	0.7214 ± 0.0057	0.718 ± 0.0076	0.703 ± 0.024	0.681 ± 0.028
0.1 µM, coculture fibroblast: HCFa	0.93 ± 0.029	0.878 ± 0.017	0.844 ± 0.0099	0.78 ± 0.021	0.733 ± 0.017	0.694 ± 0.016	0.668 ± 0.032	0.644 ± 0.034	0.615 ± 0.036
0.1 µM, coculture fibroblast: HCPF	0.893 ± 0.1	0.89 ± 0.033	0.8069 ± 0.0064	0.762 ± 0.011	0.733 ± 0.023	0.704 ± 0.025	0.673 ± 0.047	0.669 ± 0.051	0.639 ± 0.05
0.1 µM, coculture fibroblast: HHSteC	0.919 ± 0.034	0.892 ± 0.041	0.878 ± 0.063	0.82 ± 0.078	0.789 ± 0.098	0.754 ± 0.1	0.73 ± 0.12	0.713 ± 0.12	0.692 ± 0.13
0.1 µM, coculture fibroblast: HMF	0.833 ± 0.19	0.925 ± 0.079	0.836 ± 0.067	0.787 ± 0.076	0.742 ± 0.053	0.701 ± 0.042	0.674 ± 0.042	0.639 ± 0.013	0.622 ± 0.024
0.1 µM, coculture fibroblast: HPFa	0.9223 ± 0.0072	0.9162 ± 0.0022	0.9435 ± 0.0036	0.871 ± 0.012	0.853 ± 0.017	0.814 ± 0.012	0.795 ± 0.0092	0.7672 ± 0.0066	0.707 ± 0.016
0.1 µM, coculture fibroblast: HUF	0.897 ± 0.043	0.82 ± 0.046	0.791 ± 0.043	0.706 ± 0.047	0.663 ± 0.043	0.623 ± 0.041	0.602 ± 0.036	0.599 ± 0.031	0.585 ± 0.029
0.1 µM, coculture fibroblast: Hs5	0.88 ± 0.057	0.926 ± 0.018	0.8503 ± 0.0014	0.8064 ± 0.00075	0.753 ± 0.018	0.717 ± 0.01	0.691 ± 0.0076	0.6624 ± 0.0023	0.6366 ± 0.0042
0.1 µM, coculture fibroblast: Hs27A	0.904 ± 0.09	0.878 ± 0.15	0.872 ± 0.17	0.894 ± 0.097	0.84 ± 0.15	0.846 ± 0.14	0.829 ± 0.18	0.822 ± 0.16	0.94 ± 0.072
0.1 µM, coculture fibroblast: Hs343T	0.9925 ± 0.0038	0.919 ± 0.033	0.836 ± 0.049	0.781 ± 0.058	0.743 ± 0.042	0.701 ± 0.029	0.667 ± 0.012	0.657 ± 0.015	0.628 ± 0.013
0.1 µM, coculture fibroblast: WS1	0.863 ± 0.027	0.779 ± 0.041	0.72 ± 0.042	0.644 ± 0.041	0.58 ± 0.048	0.555 ± 0.059	0.527 ± 0.06	0.501 ± 0.06	0.489 ± 0.068
1 µM, coculture fibroblast: C12385	0.897 ± 0.014	0.79 ± 0.012	0.726 ± 0.022	0.654 ± 0.022	0.601 ± 0.017	0.568 ± 0.016	0.539 ± 0.017	0.517 ± 0.02	0.502 ± 0.02
1 µM, coculture fibroblast: H6013	0.988 ± 0.017	0.891 ± 0.036	0.854 ± 0.03	0.821 ± 0.03	0.764 ± 0.011	0.733 ± 0.017	0.712 ± 0.01	0.679 ± 0.0052	0.654 ± 0.0076
1 µM, coculture fibroblast: H6019	0.8694 ± 0.0017	0.805 ± 0.028	0.799 ± 0.086	0.744 ± 0.085	0.702 ± 0.1	0.691 ± 0.1	0.656 ± 0.1	0.628 ± 0.099	0.609 ± 0.1
1 µM, coculture fibroblast: H6076	0.86 ± 0.2	0.903 ± 0.038	0.801 ± 0.018	0.769 ± 0.028	0.728 ± 0.026	0.707 ± 0.0084	0.6886 ± 0.0058	0.6824 ± 0.0048	0.663 ± 0.013
1 µM, coculture fibroblast: H6231	0.861 ± 0.11	0.9289 ± 0.0022	0.8119 ± 0.0067	0.7385 ± 0.0048	0.682 ± 0.012	0.637 ± 0.019	0.604 ± 0.02	0.581 ± 0.025	0.554 ± 0.013
1 µM, coculture fibroblast: HADF	0.801 ± 0.13	0.954 ± 0.029	0.911 ± 0.097	0.898 ± 0.13	0.867 ± 0.16	0.839 ± 0.18	0.816 ± 0.19	0.793 ± 0.21	0.772 ± 0.23
1 µM, coculture fibroblast: HCFa	0.935 ± 0.035	0.855 ± 0.037	0.817 ± 0.042	0.762 ± 0.041	0.721 ± 0.06	0.681 ± 0.059	0.641 ± 0.068	0.617 ± 0.067	0.578 ± 0.063
1 µM, coculture fibroblast: HCPF	0.878 ± 0.15	0.906 ± 0.013	0.809 ± 0.03	0.762 ± 0.0086	0.7255 ± 0.0054	0.685 ± 0.013	0.6375 ± 0.0048	0.6305 ± 0.004	0.5942 ± 0.0024
1 µM, coculture fibroblast: HHSteC	0.92 ± 0.018	0.853 ± 0.035	0.86 ± 0.015	0.786 ± 0.019	0.744 ± 0.018	0.707 ± 0.02	0.683 ± 0.016	0.667 ± 0.018	0.624 ± 0.014
1 µM, coculture fibroblast: HMF	0.888 ± 0.12	0.917 ± 0.027	0.816 ± 0.067	0.766 ± 0.062	0.715 ± 0.049	0.668 ± 0.045	0.626 ± 0.031	0.591 ± 0.015	0.569 ± 0.0067
1 µM, coculture fibroblast: HPFa	0.9277 ± 0.0069	0.837 ± 0.025	0.837 ± 0.048	0.754 ± 0.046	0.713 ± 0.052	0.653 ± 0.059	0.62 ± 0.067	0.583 ± 0.074	0.532 ± 0.077
1 µM, coculture fibroblast: HUF	0.892 ± 0.013	0.7892 ± 0.0031	0.739 ± 0.0079	0.654 ± 0.013	0.6 ± 0.013	0.56 ± 0.013	0.536 ± 0.016	0.513 ± 0.021	0.5 ± 0.026
1 µM, coculture fibroblast: Hs5	0.745 ± 0.051	0.9235 ± 0.0037	0.835 ± 0.014	0.776 ± 0.018	0.728 ± 0.039	0.681 ± 0.038	0.633 ± 0.062	0.589 ± 0.058	0.55 ± 0.074
1 µM, coculture fibroblast: Hs27A	0.833 ± 0.12	0.855 ± 0.047	0.916 ± 0.051	0.915 ± 0.048	0.874 ± 0.063	0.848 ± 0.067	0.823 ± 0.076	0.796 ± 0.083	0.744 ± 0.093
1 µM, coculture fibroblast: Hs343T	0.9747 ± 0.0076	0.853 ± 0.039	0.752 ± 0.012	0.701 ± 0.0065	0.654 ± 0.011	0.618 ± 0.018	0.577 ± 0.017	0.56 ± 0.011	0.532 ± 0.018
1 µM, coculture fibroblast: WS1	0.8667 ± 0.007	0.769 ± 0.011	0.7281 ± 0.00084	0.667 ± 0.0084	0.616 ± 0.0063	0.589 ± 0.0086	0.567 ± 0.02	0.552 ± 0.025	0.547 ± 0.038
